From article PMC5645313
No constants are given. Whether binding was seen depends on the method and setting. A result given as binding can be weak or reduced; the word gives no strength.

Target: T1, biotin-GID1A (biotinylated GA receptor GID1A) (Arabidopsis thaliana) (UniProt Q9MAA7)
T1 sequence (chain, biotin (added by BirA during cell-free synthesis)): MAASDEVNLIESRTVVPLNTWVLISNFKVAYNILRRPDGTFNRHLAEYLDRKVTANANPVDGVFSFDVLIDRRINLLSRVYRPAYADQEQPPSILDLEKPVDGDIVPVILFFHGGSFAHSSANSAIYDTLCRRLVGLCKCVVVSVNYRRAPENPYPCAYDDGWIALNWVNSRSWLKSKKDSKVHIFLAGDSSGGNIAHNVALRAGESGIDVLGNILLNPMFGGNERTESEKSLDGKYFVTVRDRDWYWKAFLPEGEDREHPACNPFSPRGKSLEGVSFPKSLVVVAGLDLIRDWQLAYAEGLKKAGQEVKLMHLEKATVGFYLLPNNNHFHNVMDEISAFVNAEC
Assay: AlphaScreen or HTRF; screen of 204 FLAG-tagged Arabidopsis RING-type E3 ligases against biotinylated GID1A; 1 µl of each wheat cell-free product in 15 µl AlphaScreen buffer (100 mM Tris-HCl pH 8.0, 0.1% Tween20, 1 mg/ml BSA), 25 °C, 1 h; streptavidin donor beads, anti-FLAG M2 antibody with Protein A acceptor beads; background controlled with E. coli DHFR

binding: binds
Substance: FLAG-at1g47570 (RING-type E3 ubiquitin ligase) (Arabidopsis thaliana) (enzyme)
